Measured values as given in article PMC12219335.
No constants are given. Whether binding was seen depends on the method and setting. In cells and extracts the contact can be indirect. These calls come from enrichment with a bait or labelling near it, and not all partners need be listed.

By UniProt entry, the sequences of proteins in these tests, tags left out. Residues count along the entry.
UniProt Q9NZQ7, residues 19-290: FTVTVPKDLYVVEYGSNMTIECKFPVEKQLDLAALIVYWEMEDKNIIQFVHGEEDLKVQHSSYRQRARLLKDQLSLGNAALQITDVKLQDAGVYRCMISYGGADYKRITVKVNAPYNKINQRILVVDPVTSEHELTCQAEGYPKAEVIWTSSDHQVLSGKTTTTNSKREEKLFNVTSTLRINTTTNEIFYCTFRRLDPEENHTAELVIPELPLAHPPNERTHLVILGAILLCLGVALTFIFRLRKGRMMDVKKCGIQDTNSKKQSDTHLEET

Target: programmed death ligand 1 (PD-L1) (human (endogenous in SCC9)) (UniProt Q9NZQ7)
Experiment: affinity purification with mass spectrometry; anti-PD-L1 antibody precipitation from SCC9 cells, control and NMT1 knock-down; proteins whose binding to PD-L1 changed were screened by mass spectrometry and crossed with the YnMyr myristoylation proteomics

B1: calcineurin B homologous protein 1 (CHP1) (protein, UniProt Q99653 1-195)
chain: MGSRASTLLRDEELEEIKKETGFSHSQITRLYSRFTSLDKGENGTLSREDFQRIPELAINPLGDRIINAFFPEGEDQVNFRGFMRTLAHFRPIEDNEKSKDVNGPEPLNSRSNKLHFAFRLYDLDKDEKISRDELLQVLRMMVGVNISDEQLGSIADRTIQEADQDGDSAISFTEFVKVLEKVDVEQKMSIRFLH
modifications: N-terminal myristoylation (by NMT1; labelled by YnMyr)
binding: binds
